Measured values reported in paper PMC6044906.
These are yes or no findings as the source states them, for the method shown. Binding seen in cells or lysates may run through a third protein. Some binding calls cover weakened binding; strength is not graded here.

By UniProt entry, the sequences of proteins in these tests, tags left out.
UniProt Q14318: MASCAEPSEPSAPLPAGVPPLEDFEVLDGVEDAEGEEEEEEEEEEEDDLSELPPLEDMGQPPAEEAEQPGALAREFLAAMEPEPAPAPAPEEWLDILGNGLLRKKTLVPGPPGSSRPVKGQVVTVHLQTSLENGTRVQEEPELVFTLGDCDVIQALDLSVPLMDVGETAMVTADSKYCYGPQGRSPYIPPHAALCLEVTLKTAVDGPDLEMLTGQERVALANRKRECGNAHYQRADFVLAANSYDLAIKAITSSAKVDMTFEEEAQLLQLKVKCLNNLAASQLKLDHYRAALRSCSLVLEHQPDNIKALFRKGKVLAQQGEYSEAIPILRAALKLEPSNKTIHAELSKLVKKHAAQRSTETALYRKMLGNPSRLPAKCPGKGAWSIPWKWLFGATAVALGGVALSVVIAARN
UniProt Q8TE73: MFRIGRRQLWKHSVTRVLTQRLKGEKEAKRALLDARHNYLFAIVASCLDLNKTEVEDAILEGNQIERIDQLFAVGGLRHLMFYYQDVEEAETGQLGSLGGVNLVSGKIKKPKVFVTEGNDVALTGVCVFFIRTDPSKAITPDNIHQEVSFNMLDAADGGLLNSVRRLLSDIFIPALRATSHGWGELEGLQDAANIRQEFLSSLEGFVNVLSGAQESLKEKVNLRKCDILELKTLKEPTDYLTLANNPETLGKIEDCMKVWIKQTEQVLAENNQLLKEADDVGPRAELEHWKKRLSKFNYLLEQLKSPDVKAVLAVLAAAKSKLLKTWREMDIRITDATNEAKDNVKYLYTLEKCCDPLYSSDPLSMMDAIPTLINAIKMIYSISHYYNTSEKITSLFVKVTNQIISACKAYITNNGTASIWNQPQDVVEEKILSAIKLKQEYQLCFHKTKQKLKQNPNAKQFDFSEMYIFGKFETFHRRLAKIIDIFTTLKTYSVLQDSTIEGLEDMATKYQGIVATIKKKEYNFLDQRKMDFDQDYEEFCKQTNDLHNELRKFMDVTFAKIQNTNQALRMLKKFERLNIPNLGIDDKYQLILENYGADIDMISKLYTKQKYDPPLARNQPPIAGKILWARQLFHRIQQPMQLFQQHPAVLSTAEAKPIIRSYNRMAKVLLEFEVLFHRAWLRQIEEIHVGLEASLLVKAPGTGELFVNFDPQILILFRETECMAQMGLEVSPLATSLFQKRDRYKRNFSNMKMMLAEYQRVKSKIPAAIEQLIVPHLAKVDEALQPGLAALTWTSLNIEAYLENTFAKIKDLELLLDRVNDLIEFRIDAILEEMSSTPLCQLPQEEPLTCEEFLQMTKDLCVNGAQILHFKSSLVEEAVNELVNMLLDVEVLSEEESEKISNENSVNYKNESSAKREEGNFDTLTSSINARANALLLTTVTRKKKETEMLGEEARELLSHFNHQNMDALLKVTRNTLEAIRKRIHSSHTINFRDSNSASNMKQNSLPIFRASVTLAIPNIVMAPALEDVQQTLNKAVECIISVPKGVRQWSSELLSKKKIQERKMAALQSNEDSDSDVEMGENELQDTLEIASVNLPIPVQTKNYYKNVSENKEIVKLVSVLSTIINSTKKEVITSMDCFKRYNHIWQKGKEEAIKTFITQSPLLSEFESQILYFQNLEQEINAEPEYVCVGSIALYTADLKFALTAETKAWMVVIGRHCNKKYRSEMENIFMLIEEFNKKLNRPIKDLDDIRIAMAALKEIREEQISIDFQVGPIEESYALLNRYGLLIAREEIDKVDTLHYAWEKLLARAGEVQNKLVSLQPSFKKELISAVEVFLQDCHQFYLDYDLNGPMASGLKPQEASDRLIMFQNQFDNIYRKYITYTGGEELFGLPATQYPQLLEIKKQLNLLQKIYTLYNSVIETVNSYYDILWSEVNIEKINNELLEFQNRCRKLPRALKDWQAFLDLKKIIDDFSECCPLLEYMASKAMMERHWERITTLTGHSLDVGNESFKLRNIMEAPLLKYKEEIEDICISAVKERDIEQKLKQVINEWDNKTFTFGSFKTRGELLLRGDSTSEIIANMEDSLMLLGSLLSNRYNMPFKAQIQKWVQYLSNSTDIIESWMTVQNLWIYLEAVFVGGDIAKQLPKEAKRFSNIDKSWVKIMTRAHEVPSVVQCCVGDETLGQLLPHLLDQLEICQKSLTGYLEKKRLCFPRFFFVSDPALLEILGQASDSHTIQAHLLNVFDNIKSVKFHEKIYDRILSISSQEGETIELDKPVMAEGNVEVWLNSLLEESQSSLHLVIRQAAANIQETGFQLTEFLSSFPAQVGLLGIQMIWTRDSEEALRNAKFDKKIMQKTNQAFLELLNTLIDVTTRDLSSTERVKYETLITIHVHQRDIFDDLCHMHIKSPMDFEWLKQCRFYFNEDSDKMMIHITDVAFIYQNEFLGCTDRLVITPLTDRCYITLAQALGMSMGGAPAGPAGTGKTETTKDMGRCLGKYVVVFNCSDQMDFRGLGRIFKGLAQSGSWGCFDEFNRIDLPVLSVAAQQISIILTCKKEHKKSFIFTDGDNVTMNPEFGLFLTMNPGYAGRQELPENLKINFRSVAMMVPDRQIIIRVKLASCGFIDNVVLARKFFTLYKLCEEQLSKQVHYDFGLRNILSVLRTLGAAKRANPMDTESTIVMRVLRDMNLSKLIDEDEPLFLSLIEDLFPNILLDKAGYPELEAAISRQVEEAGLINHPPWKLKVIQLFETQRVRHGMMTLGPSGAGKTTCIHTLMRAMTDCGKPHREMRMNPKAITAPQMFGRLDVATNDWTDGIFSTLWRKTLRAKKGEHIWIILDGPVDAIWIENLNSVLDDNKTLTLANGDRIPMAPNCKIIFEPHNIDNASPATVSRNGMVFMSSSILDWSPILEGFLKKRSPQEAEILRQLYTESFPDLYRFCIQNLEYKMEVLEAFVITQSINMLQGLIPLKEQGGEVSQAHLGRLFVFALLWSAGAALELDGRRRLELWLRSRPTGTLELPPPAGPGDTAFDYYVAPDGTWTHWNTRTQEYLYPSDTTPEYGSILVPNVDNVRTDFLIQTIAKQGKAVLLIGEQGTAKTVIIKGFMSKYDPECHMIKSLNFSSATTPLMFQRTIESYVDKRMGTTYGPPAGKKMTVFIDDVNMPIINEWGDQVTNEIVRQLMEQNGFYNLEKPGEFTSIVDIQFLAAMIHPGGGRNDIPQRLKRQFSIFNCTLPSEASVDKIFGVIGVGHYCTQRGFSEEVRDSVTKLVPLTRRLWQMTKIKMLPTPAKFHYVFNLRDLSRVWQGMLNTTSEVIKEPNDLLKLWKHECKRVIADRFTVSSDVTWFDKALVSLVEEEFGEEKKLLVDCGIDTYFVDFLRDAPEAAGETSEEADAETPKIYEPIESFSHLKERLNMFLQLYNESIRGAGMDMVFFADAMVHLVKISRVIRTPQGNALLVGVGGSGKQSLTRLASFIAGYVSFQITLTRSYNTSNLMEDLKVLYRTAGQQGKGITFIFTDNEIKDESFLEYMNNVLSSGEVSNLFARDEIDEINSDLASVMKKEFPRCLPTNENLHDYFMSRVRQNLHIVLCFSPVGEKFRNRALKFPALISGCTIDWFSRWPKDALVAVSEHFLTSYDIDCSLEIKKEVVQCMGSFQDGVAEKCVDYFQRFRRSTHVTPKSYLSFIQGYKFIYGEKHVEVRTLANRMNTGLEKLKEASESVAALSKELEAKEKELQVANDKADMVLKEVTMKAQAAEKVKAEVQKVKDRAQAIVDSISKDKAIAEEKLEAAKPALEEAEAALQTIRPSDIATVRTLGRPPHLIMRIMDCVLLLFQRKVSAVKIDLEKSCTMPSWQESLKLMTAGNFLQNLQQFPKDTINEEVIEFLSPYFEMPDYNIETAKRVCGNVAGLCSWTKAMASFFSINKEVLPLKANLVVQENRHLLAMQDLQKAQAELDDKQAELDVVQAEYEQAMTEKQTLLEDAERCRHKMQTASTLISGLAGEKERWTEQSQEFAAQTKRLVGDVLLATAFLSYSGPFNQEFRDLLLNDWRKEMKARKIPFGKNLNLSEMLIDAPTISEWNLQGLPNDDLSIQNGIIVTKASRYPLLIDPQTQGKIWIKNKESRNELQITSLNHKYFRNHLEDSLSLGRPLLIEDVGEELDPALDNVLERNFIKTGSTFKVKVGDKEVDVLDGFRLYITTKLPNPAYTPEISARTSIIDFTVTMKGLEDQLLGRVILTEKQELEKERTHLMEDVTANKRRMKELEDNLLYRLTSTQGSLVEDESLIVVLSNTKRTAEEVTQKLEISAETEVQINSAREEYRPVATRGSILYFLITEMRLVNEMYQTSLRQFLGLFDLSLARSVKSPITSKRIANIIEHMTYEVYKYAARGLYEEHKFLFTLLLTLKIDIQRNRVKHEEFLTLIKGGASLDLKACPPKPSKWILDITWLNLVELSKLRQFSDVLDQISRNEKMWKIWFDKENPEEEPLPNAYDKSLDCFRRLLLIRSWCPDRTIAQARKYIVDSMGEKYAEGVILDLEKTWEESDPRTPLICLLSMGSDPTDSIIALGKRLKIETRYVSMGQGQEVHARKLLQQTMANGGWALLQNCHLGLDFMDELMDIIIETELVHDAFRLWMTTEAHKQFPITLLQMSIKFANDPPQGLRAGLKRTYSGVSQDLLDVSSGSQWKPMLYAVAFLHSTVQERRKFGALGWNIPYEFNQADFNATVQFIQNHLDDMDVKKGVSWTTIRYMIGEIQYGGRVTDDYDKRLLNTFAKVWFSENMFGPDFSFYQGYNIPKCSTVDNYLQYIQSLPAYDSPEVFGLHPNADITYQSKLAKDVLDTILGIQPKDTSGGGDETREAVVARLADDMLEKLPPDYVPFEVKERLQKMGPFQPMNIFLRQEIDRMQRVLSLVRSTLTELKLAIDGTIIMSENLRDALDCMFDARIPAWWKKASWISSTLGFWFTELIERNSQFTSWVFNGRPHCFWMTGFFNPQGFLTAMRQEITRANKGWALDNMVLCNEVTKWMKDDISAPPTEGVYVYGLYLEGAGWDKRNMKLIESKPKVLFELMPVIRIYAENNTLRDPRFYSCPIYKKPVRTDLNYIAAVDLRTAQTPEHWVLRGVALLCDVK
UniProt O75800: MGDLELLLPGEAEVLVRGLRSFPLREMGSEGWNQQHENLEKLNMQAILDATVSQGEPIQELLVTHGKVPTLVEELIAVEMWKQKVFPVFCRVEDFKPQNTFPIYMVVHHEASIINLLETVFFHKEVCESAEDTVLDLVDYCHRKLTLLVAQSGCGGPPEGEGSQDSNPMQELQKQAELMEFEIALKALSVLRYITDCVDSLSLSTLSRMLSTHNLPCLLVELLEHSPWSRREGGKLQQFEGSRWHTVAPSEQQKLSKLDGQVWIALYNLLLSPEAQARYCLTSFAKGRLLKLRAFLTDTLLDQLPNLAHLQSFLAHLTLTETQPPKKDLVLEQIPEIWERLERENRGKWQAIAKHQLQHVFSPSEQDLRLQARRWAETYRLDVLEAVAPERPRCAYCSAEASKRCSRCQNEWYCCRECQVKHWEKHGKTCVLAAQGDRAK

How the values were obtained:
[1] = biological target: T1, DNAI1 (human (endogenous in tracheal epithelial cultures)) (UniProt Q9UI46); assay: co-IP; endogenous FKBP8 and DNAI1 immunoprecipitated from lysates of healthy human donor tracheal epithelial cultures (MucilAir, D17 ALI, immature cells), Protein G magnetic beads, immunoblot for DNAH5 and ZMYND10
T1 sequence: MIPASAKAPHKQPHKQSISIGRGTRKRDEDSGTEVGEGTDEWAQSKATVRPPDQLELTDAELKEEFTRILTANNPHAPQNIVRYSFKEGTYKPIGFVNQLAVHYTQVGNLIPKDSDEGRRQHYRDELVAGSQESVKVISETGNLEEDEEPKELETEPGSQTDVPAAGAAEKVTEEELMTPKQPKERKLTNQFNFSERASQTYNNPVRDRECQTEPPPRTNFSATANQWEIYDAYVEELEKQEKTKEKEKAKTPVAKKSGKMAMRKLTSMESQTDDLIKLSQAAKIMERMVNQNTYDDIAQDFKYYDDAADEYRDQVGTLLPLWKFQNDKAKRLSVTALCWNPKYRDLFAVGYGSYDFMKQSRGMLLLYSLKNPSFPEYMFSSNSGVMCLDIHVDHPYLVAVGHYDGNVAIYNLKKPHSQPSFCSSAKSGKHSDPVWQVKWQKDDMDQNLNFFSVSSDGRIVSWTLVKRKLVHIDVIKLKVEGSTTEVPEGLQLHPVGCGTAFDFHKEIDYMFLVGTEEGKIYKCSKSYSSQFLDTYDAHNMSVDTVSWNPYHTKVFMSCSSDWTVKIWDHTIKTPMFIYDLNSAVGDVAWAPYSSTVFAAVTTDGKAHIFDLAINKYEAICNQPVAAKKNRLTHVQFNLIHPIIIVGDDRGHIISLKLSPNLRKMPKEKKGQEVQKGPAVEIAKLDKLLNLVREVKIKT

[2] = biological target: T2, DNAI2 (mouse (endogenous in testes, oviduct, trachea, nasal epithelium)) (UniProt A2AC93); assay: proximity ligation; in situ PLA (Duolink) on PFA-fixed, permeabilised nasal brush epithelial cells of healthy human donors and of P7 control and Zmynd10-/- mice; antibody pairs DNAI2 + DNAH5 and DNAI2 + DNAH9; single-antibody control without signal; fewer foci, only cytoplasmic, in Zmynd10 mutants
T2 sequence: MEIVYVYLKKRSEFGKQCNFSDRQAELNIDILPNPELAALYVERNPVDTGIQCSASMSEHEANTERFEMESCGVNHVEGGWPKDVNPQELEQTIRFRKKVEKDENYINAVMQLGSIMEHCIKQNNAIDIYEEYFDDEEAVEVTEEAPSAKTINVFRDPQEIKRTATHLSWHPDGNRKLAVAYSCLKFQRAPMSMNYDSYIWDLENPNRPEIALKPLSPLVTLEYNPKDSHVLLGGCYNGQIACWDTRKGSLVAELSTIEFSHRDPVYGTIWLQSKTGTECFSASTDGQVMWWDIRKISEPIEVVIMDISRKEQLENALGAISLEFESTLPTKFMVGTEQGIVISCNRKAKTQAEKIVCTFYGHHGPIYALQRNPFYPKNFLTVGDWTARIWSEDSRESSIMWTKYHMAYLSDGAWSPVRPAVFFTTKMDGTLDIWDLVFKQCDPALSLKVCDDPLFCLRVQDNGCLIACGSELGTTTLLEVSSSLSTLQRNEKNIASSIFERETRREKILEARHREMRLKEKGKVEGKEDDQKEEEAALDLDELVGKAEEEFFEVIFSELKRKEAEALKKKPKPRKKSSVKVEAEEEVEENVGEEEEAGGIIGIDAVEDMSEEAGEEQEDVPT

[3] = biological target: T3, DNAI2 (human (endogenous in nasal epithelial cells)) (UniProt Q9GZS0); assay: as above
T3 sequence: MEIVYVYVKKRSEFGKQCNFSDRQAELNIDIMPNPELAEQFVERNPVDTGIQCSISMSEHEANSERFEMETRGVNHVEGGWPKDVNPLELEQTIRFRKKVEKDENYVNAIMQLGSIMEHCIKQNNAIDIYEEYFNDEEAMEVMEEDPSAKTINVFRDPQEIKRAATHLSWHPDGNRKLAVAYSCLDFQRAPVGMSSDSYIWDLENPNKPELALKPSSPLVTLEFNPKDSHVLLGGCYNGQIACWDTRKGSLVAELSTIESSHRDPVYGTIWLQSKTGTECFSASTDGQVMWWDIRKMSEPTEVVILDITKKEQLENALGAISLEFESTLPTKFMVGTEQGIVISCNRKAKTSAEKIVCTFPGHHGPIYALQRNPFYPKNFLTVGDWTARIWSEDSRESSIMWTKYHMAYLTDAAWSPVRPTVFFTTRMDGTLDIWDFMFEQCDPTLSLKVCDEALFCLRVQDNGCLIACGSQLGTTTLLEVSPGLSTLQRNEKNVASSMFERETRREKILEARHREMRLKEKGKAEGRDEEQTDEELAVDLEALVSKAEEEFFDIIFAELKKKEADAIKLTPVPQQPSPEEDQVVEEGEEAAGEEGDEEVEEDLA

[4] = biological target: FKBP8 (human (endogenous in tracheal epithelial cultures, HEK293, RPE-1)) (UniProt Q14318); assay: co-IP; endogenous FKBP8 and DNAI1 immunoprecipitated from lysates of healthy human donor tracheal epithelial cultures (MucilAir, D17 ALI, immature cells), Protein G magnetic beads, immunoblot for DNAH5 and ZMYND10
[5] = biological target: T2, DNAI2 (mouse (endogenous in testes, oviduct, trachea, nasal epithelium)); assay: co-IP; endogenous DNAI2 immunoprecipitated from mouse tissue extracts (testes P26, oviduct P7, trachea P7 and P90) of wild type and Zmynd10-/- animals, mild lysis buffer, Protein G magnetic beads, immunoblot for DNAI1 and DNAH5; DNAH5 co-precipitation 0.47 and 0.56 fold reduction in mutant P7 oviduct and trachea

Substance	binding [1]	binding [2]	binding [4]	also measured
FKBP8 (from UniProt Q14318 1-412)	no binding			
DNAH9 (from UniProt B1AR51 1-4484)		binds		
DNAH5 (from UniProt Q8TE73 1-4624)	binds		binds	binding [3]: binds
DNAH5 (from UniProt Q8VHE6 1-4621)		binds		binding [5]: binds
ZMYND10 (from UniProt O75800 1-440)			binds	
